Reference: the supplement of paper PMC4604168 (melanoma cell lines)
The other results are listed elsewhere or left out. Repeats are few or missing, and single values can be far off.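 Cells were imaged in 1,536-well plates, and nuclei stained with an antibody against cleaved PARP were counted against all DNA-stained nuclei to give the apoptosis fraction. Screening doses were chosen to leave most cells alive, and resting and induced cleaved-PARP levels differ strongly between cell lines.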

Key:
Assay in all cases: cleaved PARP positive nuclei fraction relative to DMSO control; melanoma cells; higher = more apoptosis
Settings in all cases: library dose: low library concentration; 72 h
WM115 = system: WM115
WM1716 = system: WM1716
WM1745 = system: WM1745
WM3526 = system: WM3526
WM3619 = system: WM3619
WM451Lu = system: WM451Lu

SMILES	cleaved PARP positive nuclei fraction (WM115)	cleaved PARP positive nuclei fraction (WM1716)	cleaved PARP positive nuclei fraction (WM1745)	cleaved PARP positive nuclei fraction (WM3526)	cleaved PARP positive nuclei fraction (WM3619)	cleaved PARP positive nuclei fraction (WM451Lu)
Cn1sc(=O)n(Cc2ccccc2)c1=O + Cn1c(Nc2ccc(C(F)(F)F)cc2)nc2cc(Oc3ccnc(-c4ncc(C(F)(F)F)[nH]4)c3)ccc21 [CHIR265] (first compound 0.4 µM, partner dose 0.08 µM)	489%	77.6%	128%	129%	152%	45.6%
CCCCCCCCc1ccc(CCC(N)(CO)CO)cc1 [fingolimod] + Oc1cc(-c2nc(-c3ccccc3)[nH]c2-c2ccncc2)ccc1Cl [L779450] (first compound 2 µM, partner dose 0.2 µM)	210%	117%	105%	104%	118%	157%
C[C@]1(O)C[C@@H](c2nc(-c3ccc4ccc(-c5ccccc5)nc4c3)c3c(N)nccn32)C1 + COc1ccc(-c2ccc3c(N4CCOCC4)nc(N4C[C@@H](C)O[C@@H](C)C4)nc3n2)cc1CO [KU0063794] (first compound 0.4 µM, partner dose 0.02 µM)	138%	48.6%	109%	106%	94.7%	98.6%
CN(c1ncccc1CNc1nc(Nc2ccc3c(c2)CC(=O)N3)ncc1C(F)(F)F)S(C)(=O)=O + COc1ccc2c(c1)CCC1C2CCC2(C)C(NCCCCCCN3C(=O)C=CC3=O)CCC12 [U73122] (first compound 0.08 µM, partner dose 0.4 µM)	95.6%	32.8%	130%	155%	86.2%	231%
COc1ccc(C2=N[C@@H](c3ccc(Cl)cc3)[C@@H](c3ccc(Cl)cc3)N2C(=O)N2CCNC(=O)C2)c(OC(C)C)c1 [Nutlin-3] + CC(C)CCN1c2nc(Nc3cc(F)c(O)c(F)c3)ncc2N(C)C(=O)C1C [BID1870] (first compound 0.1 µM, partner dose 0.2 µM)	117%	25.1%	89.5%	70.7%	103%	87.3%
COc1ccc(C2=N[C@@H](c3ccc(Cl)cc3)[C@@H](c3ccc(Cl)cc3)N2C(=O)N2CCNC(=O)C2)c(OC(C)C)c1 [Nutlin-3] + CN1CCN(c2ccc3nc(-c4c(N)c5c(F)cccc5[nH]c4=O)[nH]c3c2)CC1 [Dovitinib] (first compound 0.1 µM, partner dose 0.1 µM)	273%	99.2%	121%	37.8%	108%	78.7%
COc1ccc(C2=N[C@@H](c3ccc(Cl)cc3)[C@@H](c3ccc(Cl)cc3)N2C(=O)N2CCNC(=O)C2)c(OC(C)C)c1 [Nutlin-3] + COc1ccc(COc2ccc(Cc3cnc(N)nc3N)cc2OC)cc1 [GW2580] (first compound 0.1 µM, partner dose 1 µM)	113%	77%	119%	182%	97.2%	77.7%
COc1ccc(C2=N[C@@H](c3ccc(Cl)cc3)[C@@H](c3ccc(Cl)cc3)N2C(=O)N2CCNC(=O)C2)c(OC(C)C)c1 [Nutlin-3] + COc1cc(Nc2ncc(F)c(Nc3ccc4c(n3)NC(=O)C(C)(C)O4)n2)cc(OC)c1OC [Tamatinib] (first compound 0.1 µM, partner dose 0.4 µM)	192%	57.9%	118%	37.5%	93.7%	57.3%
NC(=O)c1ccc(N(C(N)=O)c2c(F)cccc2F)nc1-c1ccc(F)cc1F + O=C(O)c1ccc2c(c1)nc(Nc1cccc(Cl)c1)c1ccncc12 [CX4945] (first compound 0.4 µM, partner dose 0.4 µM)	163%	225%	41.6%	132%	115%	79.6%
CCCCCCCCc1ccc(CCC(N)(CO)CO)cc1 [fingolimod] + Cn1c(=O)n(-c2ccc(C(C)(C)C#N)cc2)c2c3cc(-c4cnc5ccccc5c4)ccc3ncc21 [NVP-BEZ235] (first compound 2 µM, partner dose 0.004 µM)	103%	48%	243%	47.3%	116%	22.6%
CCN(CC)CCNC(=O)c1c(C)[nH]c(/C=C2\C(=O)Nc3ccc(F)cc32)c1C [sunitinib] + CO[C@H]1C[C@@H]2CC[C@@H](C)[C@@](O)(O2)C(=O)C(=O)N2CCCC[C@H]2C(=O)O[C@H]([C@H](C)C[C@@H]2CC[C@@H](OCCO)[C@H](OC)C2)CC(=O)[C@H](C)/C=C(\C)[C@@H](O)[C@@H](OC)C(=O)[C@H](C)C[C@H](C)/C=C/C=C/C=C/1C [everolimus] (first compound 0.4 µM, partner dose 0.02 µM)	100%	80.2%	126%	65.2%	132%	71.5%
C[C@@H](N)c1ccc(C(=O)Nc2ccnc3[nH]ccc23)cc1 + C#Cc1cccc(Nc2ncnc3cc(OCCOC)c(OCCOC)cc23)c1 [erlotinib] (first compound 0.4 µM, partner dose 0.8 µM)	79.3%	96.5%	233%	40.9%	85.2%	50.6%
CC1(C)CCC(c2ccc(Cl)cc2)=C(CN2CCN(c3ccc(C(=O)NS(=O)(=O)c4ccc(N[C@H](CCN5CCOCC5)CSc5ccccc5)c(S(=O)(=O)C(F)(F)F)c4)cc3)CC2)C1 + Cn1nnc2c(C(N)=O)ncn2c1=O [temozolomide] (first compound 0.4 µM, partner dose 2 µM)	287%	146%	986%	87.1%	121%	109%
Cn1sc(=O)n(Cc2ccccc2)c1=O + COc1ccc(C2=N[C@@H](c3ccc(Cl)cc3)[C@@H](c3ccc(Cl)cc3)N2C(=O)N2CCNC(=O)C2)c(OC(C)C)c1 [Nutlin-3] (first compound 0.4 µM, partner dose 0.1 µM)	108%	46.2%	117%	165%	93.6%	34.2%
CCCCCCCCc1ccc(CCC(N)(CO)CO)cc1 [fingolimod] + COC(=O)c1sccc1S(=O)(=O)Nc1ccc(Nc2ccccc2)cc1OC [GSK0660] (first compound 2 µM, partner dose 1 µM)	181%	26.9%	105%	84.6%	75%	35.6%
Cn1cnc2c(F)c(Nc3ccc(Br)cc3Cl)c(C(=O)NOCCO)cc21 [selumetinib] + OCCn1cc(-c2cnc3nnn(Cc4ccc5ncccc5c4)c3n2)cn1 [PF04217903] (first compound 0.015 µM, partner dose 1 µM)	249%	94.2%	85.4%	205%	105%	112%
CCCCCCCCc1ccc(CCC(N)(CO)CO)cc1 [fingolimod] + CCCCCCCCCCCC1=C(O)C(=O)C=C(O)C1=O [Embelin] (first compound 2 µM, partner dose 1.2 µM)	26.2%	112%	108%	133%	207%	84.8%
CN(c1ncccc1CNc1nc(Nc2ccc3c(c2)CC(=O)N3)ncc1C(F)(F)F)S(C)(=O)=O + COc1cc2ncnc(Nc3ccc(Oc4ccccc4)cc3)c2cc1OC [SrcI1] (first compound 0.08 µM, partner dose 2 µM)	134%	33.6%	118%	78.7%	92%	266%
CCCCCCCCc1ccc(CCC(N)(CO)CO)cc1 [fingolimod] + CO[C@H]1C[C@@H]2CC[C@@H](C)[C@@](O)(O2)C(=O)C(=O)N2CCCC[C@H]2C(=O)O[C@H]([C@H](C)C[C@@H]2CC[C@@H](OCCO)[C@H](OC)C2)CC(=O)[C@H](C)/C=C(\C)[C@@H](O)[C@@H](OC)C(=O)[C@H](C)C[C@H](C)/C=C/C=C/C=C/1C [everolimus] (first compound 2 µM, partner dose 0.02 µM)	67.4%	228%	123%	90.4%	136%	44.2%
NC1(c2ccc(-c3nc4ccn5c(=O)[nH]nc5c4cc3-c3ccccc3)cc2)CCC1 + CCN(CC)CCCCNc1ncc2cc(-c3cc(OC)cc(OC)c3)c(NC(=O)NC(C)(C)C)nc2n1 [PD173074] (first compound 0.4 µM, partner dose 0.1 µM)	132%	119%	109%	545%	104%	100%
COc1ccc(C2=N[C@@H](c3ccc(Cl)cc3)[C@@H](c3ccc(Cl)cc3)N2C(=O)N2CCNC(=O)C2)c(OC(C)C)c1 [Nutlin-3] + Cn1nnc2c(C(N)=O)ncn2c1=O [temozolomide] (first compound 0.1 µM, partner dose 2 µM)	158%	270%	95.5%	250%	205%	108%
NC(=O)c1ccc(N(C(N)=O)c2c(F)cccc2F)nc1-c1ccc(F)cc1F + Cn1c(Nc2ccc(C(F)(F)F)cc2)nc2cc(Oc3ccnc(-c4ncc(C(F)(F)F)[nH]4)c3)ccc21 [CHIR265] (first compound 0.4 µM, partner dose 0.08 µM)	200%	62.1%	114%	27.3%	97.2%	27.1%
CC(=O)O[C@@]12CO[C@@H]1C[C@H](O)[C@@]1(C)C(=O)[C@H](O)C3=C(C)[C@@H](OC(=O)[C@H](O)[C@@H](NC(=O)OC(C)(C)C)c4ccccc4)C[C@@](O)([C@@H](OC(=O)c4ccccc4)[C@H]21)C3(C)C [Docetaxel] + NC(=O)Nc1cc(-c2cccc(F)c2)sc1C(=O)N[C@H]1CCCNC1 [AZD7762] (first compound 0.0001 µM, partner dose 0.02 µM)	876%	1090%	152%	134%	267%	166%
CCCCCCCCc1ccc(CCC(N)(CO)CO)cc1 [fingolimod] + NCC(=O)Nc1ccc(-n2nc(C(F)(F)F)cc2-c2ccc3c(ccc4ccccc43)c2)cc1 [OSU03012] (first compound 2 µM, partner dose 1 µM)	90.1%	174%	130%	168%	95.7%	44.3%

Another view of some results above:
SMILES,cleaved PARP positive nuclei fraction (WM115),cleaved PARP positive nuclei fraction (WM1716),cleaved PARP positive nuclei fraction (WM1745),cleaved PARP positive nuclei fraction (WM3526),cleaved PARP positive nuclei fraction (WM3619),cleaved PARP positive nuclei fraction (WM451Lu)
"C[C@]1(O)C[C@@H](c2nc(-c3ccc4ccc(-c5ccccc5)nc4c3)c3c(N)nccn32)C1 + COc1ccc(-c2ccc3c(N4CCOCC4)nc(N4C[C@@H](C)O[C@@H](C)C4)nc3n2)cc1CO [KU0063794] (first compound 0.4 µM, partner dose 0.02 µM)",138%,48.6%,109%,106%,94.7%,98.6%
"CN(c1ncccc1CNc1nc(Nc2ccc3c(c2)CC(=O)N3)ncc1C(F)(F)F)S(C)(=O)=O + COc1ccc2c(c1)CCC1C2CCC2(C)C(NCCCCCCN3C(=O)C=CC3=O)CCC12 [U73122] (first compound 0.08 µM, partner dose 0.4 µM)",95.6%,32.8%,130%,155%,86.2%,231%
"COc1ccc(C2=N[C@@H](c3ccc(Cl)cc3)[C@@H](c3ccc(Cl)cc3)N2C(=O)N2CCNC(=O)C2)c(OC(C)C)c1 [Nutlin-3] + CC(C)CCN1c2nc(Nc3cc(F)c(O)c(F)c3)ncc2N(C)C(=O)C1C [BID1870] (first compound 0.1 µM, partner dose 0.2 µM)",117%,25.1%,89.5%,70.7%,103%,87.3%
"COc1ccc(C2=N[C@@H](c3ccc(Cl)cc3)[C@@H](c3ccc(Cl)cc3)N2C(=O)N2CCNC(=O)C2)c(OC(C)C)c1 [Nutlin-3] + CN1CCN(c2ccc3nc(-c4c(N)c5c(F)cccc5[nH]c4=O)[nH]c3c2)CC1 [Dovitinib] (first compound 0.1 µM, partner dose 0.1 µM)",273%,99.2%,121%,37.8%,108%,78.7%
"COc1ccc(C2=N[C@@H](c3ccc(Cl)cc3)[C@@H](c3ccc(Cl)cc3)N2C(=O)N2CCNC(=O)C2)c(OC(C)C)c1 [Nutlin-3] + COc1ccc(COc2ccc(Cc3cnc(N)nc3N)cc2OC)cc1 [GW2580] (first compound 0.1 µM, partner dose 1 µM)",113%,77%,119%,182%,97.2%,77.7%
"COc1ccc(C2=N[C@@H](c3ccc(Cl)cc3)[C@@H](c3ccc(Cl)cc3)N2C(=O)N2CCNC(=O)C2)c(OC(C)C)c1 [Nutlin-3] + COc1cc(Nc2ncc(F)c(Nc3ccc4c(n3)NC(=O)C(C)(C)O4)n2)cc(OC)c1OC [Tamatinib] (first compound 0.1 µM, partner dose 0.4 µM)",192%,57.9%,118%,37.5%,93.7%,57.3%
"NC(=O)c1ccc(N(C(N)=O)c2c(F)cccc2F)nc1-c1ccc(F)cc1F + O=C(O)c1ccc2c(c1)nc(Nc1cccc(Cl)c1)c1ccncc12 [CX4945] (first compound 0.4 µM, partner dose 0.4 µM)",163%,225%,41.6%,132%,115%,79.6%
